± gives the standard deviation of the averaged measurements. Some of the results follow.

The assay has as its target T1, A0A0C4DGB5|P20810-10|P20810-6|P20810-7|P20810-9|P20810-5 (UniProt P20810).
T1 sequence (whole entry): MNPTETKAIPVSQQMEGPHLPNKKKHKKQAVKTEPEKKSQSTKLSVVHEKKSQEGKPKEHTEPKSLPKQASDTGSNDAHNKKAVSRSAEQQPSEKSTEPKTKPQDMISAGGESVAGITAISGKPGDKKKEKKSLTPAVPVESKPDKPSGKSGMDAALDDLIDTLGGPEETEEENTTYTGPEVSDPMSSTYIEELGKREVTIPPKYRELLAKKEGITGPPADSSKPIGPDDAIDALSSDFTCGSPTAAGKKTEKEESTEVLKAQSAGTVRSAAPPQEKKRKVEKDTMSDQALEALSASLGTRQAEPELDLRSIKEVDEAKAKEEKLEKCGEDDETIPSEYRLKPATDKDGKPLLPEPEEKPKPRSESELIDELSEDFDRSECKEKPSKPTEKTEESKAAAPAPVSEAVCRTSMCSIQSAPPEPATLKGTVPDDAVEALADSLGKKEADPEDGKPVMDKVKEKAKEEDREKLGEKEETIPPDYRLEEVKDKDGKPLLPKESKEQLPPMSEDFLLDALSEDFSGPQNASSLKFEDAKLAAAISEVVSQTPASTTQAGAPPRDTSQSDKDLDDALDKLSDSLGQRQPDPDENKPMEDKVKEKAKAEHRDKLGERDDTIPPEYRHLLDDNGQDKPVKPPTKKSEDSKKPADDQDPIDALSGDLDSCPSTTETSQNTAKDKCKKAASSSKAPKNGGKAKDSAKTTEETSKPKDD
Put plainly: NP40-soluble protein abundance relative to vehicle (solubility fold change) (ratio); higher = more soluble protein in presence of GTP. How it is done: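 Solubility proteome profiling in Jurkat crude lysate. Lysate was treated with Mg-GTP (0.1-10 mM) for 10 min at room temperature and 3 min at 37 °C, then solubilised with 0.8% NP40 and benzonase, followed by ultracentrifugation. Proteins were quantified by TMT10 LC-MS/MS; the value is the NP40-soluble abundance relative to the NP40-processed vehicle, from 3 independent experiments.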

`Nc1nc2c(ncn2[C@@H]2O[C@H](COP(=O)(O)OP(=O)(O)OP(=O)(O)O)[C@@H](O)[C@H]2O)c(=O)[nH]1` [guanosine triphosphate]: the NP40-soluble protein abundance reads like this: (concentration: 0.1mM) 0.952 ± 0.07; (concentration: 0.5mM) 0.92 ± 0.09; (concentration: 1mM) 1.02 ± 0.1; (concentration: 2mM) 0.943 ± 0.14; (concentration: 4mM) 0.91 ± 0.11; (concentration: 6mM) 0.95 ± 0.12. Also, the NP40-soluble protein abundance is 0.954 ± 0.022 (concentration: 8mM) and 1 ± 0.081 (concentration: 10mM).

These data come from the supplement of paper PMC6411743.
